Laboratory results as given in patent publication US8455421B2, “Compositions and methods for the removal of chewing gum residues from substrates” (Expelliere Int Ltd, priority 2008, dated 2013).

Experiments:
[1] = Chewing gum film treated with laccase, [emim][docusate] and mediator; gel permeation chromatography; settings: laccase LTV 0.4 mg/mL, 20 wt % [emim][docusate], citric acid buffer pH 4.5, mediator 5 mM; for Residue fragments, molecular weight as percentage of initial molecular weight: after 72 h, GPC
[2] = Chewing gum residue on concrete slab treated with removal composition and oxidising reagents; settings: with oxygen source (hydrogen peroxide and/or sodium perborate), about 10 minutes contact

Row | Compound | Observations after 72 h [1] | Residue fragments, molecular weight as percentage of initial molecular weight [1] | further results
1 | CCn1c(=NN=c2sc3cc(S(=O)(=O)O)ccc3n2CC)sc2cc(S(=O)(=O)O)ccc21 [ABTS] | Chewing gum fully dissolved in water, no residue to |  | 
2 | OCc1ccc(O)cc1 [p-hydroxybenzyl alcohol] |  | 60% and 45% and 39% and 30% | 
3 | c1ccc2c(c1)Nc1ccccc1S2 [10-H-phenothiazine] | Chewing gum fully detached from glass surface. |  | 
4 | CC1(C)CCCC(C)(C)N1[O] [TEMPO] | Chewing gum fully dissolved in water, no residue to |  | 
5 | Oc1ccccc1-c1ccccc1 [2-hydroxybiphenyl] |  | 54% and 45% | 
6 | choline diisooctylsulfosuccinate |  |  | Removal of chewing gum residue after oxidative treatment [2]: easily removed from the surface of the concrete slab using a wire brush, or by rinsing with water

Where “and” joins values, the source holds several entries; their conditions need not be identical. Equal entries are not always repeated.
